{"source": "paper PMC12040169", "about": "(PLOS Biology, 2025)", "note": "This is one part of the list."}
{"tested_on": "T1, CTL2-GFP (C. trachomatis L2/434/Bu, GFP-expressing)", "T1 construct": "L2/434/Bu, GFP-expressing", "design": "species or system HeLa; Intracellular C. trachomatis growth in HeLa cells, bulk GFP fluorescence relative to DMSO", "details": "bulk GFP, single well; 28.5 h, 10 µM; inhibitor", "units": {"% of control remaining": "%"}}
{"smiles": "CC[C@H]1CN(C(C)=O)CC[C@H]1CC(=O)NCc1ccc2c(c1)OCO2", "note": "[CBK289131]", "% of control remaining": 128.343}
{"smiles": "CCc1noc(C)c1C(=O)Nc1ncc(C)s1", "note": "[CBK288244]", "% of control remaining": 116.518}
{"smiles": "COC(=O)c1ncn(CC(=O)N2CCCCCC2)n1", "note": "[CBK305184]", "% of control remaining": 112.683}
{"smiles": "CC(=O)c1cccc(NC(=O)CCCn2cc([N+](=O)[O-])cn2)c1", "note": "[CBK268911]", "% of control remaining": 105.649}
{"smiles": "CCn1ncc(CN2CCCCCC2c2cc(C)no2)c1C", "note": "(stereo not drawn) [CBK283008]", "% of control remaining": 126.712}
{"smiles": "CCNC(=O)NC[C@H]1C[C@@H]2CCN1C[C@@H]2c1cc(C2CCCC2)nc(C)n1", "note": "[CBK289122]", "% of control remaining": 152.255}
{"smiles": "CN1C(=O)[C@@H](OC(=O)c2cccnc2)C[C@H]1c1ccc(F)cc1", "note": "[CBK283649]", "% of control remaining": 115.681}
{"smiles": "Cc1nc2n(n1)CCN(C(=O)Cc1c(C)[nH]c3ccc(F)cc13)C2", "note": "[CBK284355]", "% of control remaining": 127.911}
{"smiles": "Clc1ccc(COc2ccccc2OCc2ccccc2)s1", "note": "[CBK002766]", "% of control remaining": 96.106}
{"smiles": "CN1CCN(C(=O)c2ccsc2NS(=O)(=O)c2ccc(-c3ccccc3)cc2)CC1", "note": "[CBK042274]", "% of control remaining": 111.123}
{"smiles": "COc1cc(CNC(=O)N2CCC(C(=O)O)CC2)cc(OC)c1OC", "note": "[CBK161401]", "% of control remaining": 133.285}
{"smiles": "O=C(Cn1nnc(-c2ccc3c(c2)OCO3)n1)Nc1ccccc1C(=O)O", "note": "[CBK268025]", "% of control remaining": 90.5818}
{"smiles": "O=C(Nc1ncnc2c1[nH]c(=O)n2C1CC(O)C(CO)O1)c1ccccc1", "note": "(stereo not drawn) [CBK201250]", "% of control remaining": 106.589}
{"smiles": "O=C(O)c1cc(NC(=O)c2ccc(Oc3ccc([N+](=O)[O-])cc3)cc2)cc(C(=O)O)c1", "note": "[CBK261188]", "% of control remaining": 115.331}
{"smiles": "O=C(C1CCCC1)N1CCC(c2nnc(-c3ccsc3)o2)CC1", "note": "[CBK283379]", "% of control remaining": 129.057}
{"smiles": "Cc1cc(N2CCN(c3ccccc3)CC2)nc(-c2ccccc2O)n1", "note": "[CBK116405]", "% of control remaining": 124.037}
{"smiles": "Cc1cc(CN(C)Cc2ccc(N3CCCC3)c(F)c2)n[nH]1", "note": "[CBK281953]", "% of control remaining": 84.9798}
{"smiles": "COc1ccccc1CN(CC1CCNCC1)C(=O)Nc1c(C)noc1C", "note": "[CBK049739]", "% of control remaining": 64.6452}
{"smiles": "CN(C)CCN(Cc1cccnc1)C(=O)Cc1ccc2c(c1)CCC2", "note": "[CBK282770]", "% of control remaining": 82.3771}
{"smiles": "COc1cc(OC)c2c(c1)OC1(CCN(C(=O)C3CCCO3)CC1)CC2=O", "note": "(stereo not drawn) [CBK156476]", "% of control remaining": 99.1273}
{"smiles": "Cc1cc(OCC(=O)NCc2cccnc2)cc(C)c1Cl", "note": "[CBK263658]", "% of control remaining": 117.545}
{"smiles": "O=C(NC1CC2(CCCC2)Oc2ccccc21)C1CCCO1", "note": "(stereo not drawn) [CBK282420]", "% of control remaining": 100.928}
{"smiles": "NC(=O)c1ccc(C(=O)NCC2CN3CCCN2CC3)cc1", "note": "(stereo not drawn) [CBK304143]", "% of control remaining": 117.49}
{"smiles": "O=C(CCn1c(=O)oc2ccccc21)Nc1ccc(S(=O)(=O)N2CCCCC2)cc1", "note": "[CBK268365]", "% of control remaining": 165.844}
{"smiles": "COc1ncc(-c2cncc(Nc3ccccc3)n2)c(OC)n1", "note": "[CBK065282]", "% of control remaining": 135.541}
{"smiles": "CCCc1[nH]nc(O)c1CCc1ccccc1F", "note": "[CBK075080]", "% of control remaining": 108.426}
{"smiles": "CC(C)c1nsc(NS(=O)(=O)c2cc(C(F)(F)F)cc(C(F)(F)F)c2)n1", "note": "[CBK051263]", "% of control remaining": 147.459}
{"smiles": "Cc1cc(C)n(C(=O)CCC(=O)Nc2cccc(Cl)c2C)n1", "note": "[CBK263851]", "% of control remaining": 113.051}
{"smiles": "Cc1cccn2cc(CCNC(=O)N[C@H](C)C(=O)N(C)C)nc12", "note": "[CBK304617]", "% of control remaining": 94.0122}
{"smiles": "COCCC(=O)N1C2CCC(C2)[C@@H]1COc1ccc(F)cc1", "note": "(stereo partly drawn) [CBK284604]", "% of control remaining": 121.804}
{"smiles": "CCOc1ncccc1CNc1ncnc2c1cnn2CCO", "note": "[CBK305964]", "% of control remaining": 140.401}
{"smiles": "O=C1NCC2(CCN(C(=O)c3cccs3)CC2)Oc2ccccc21", "note": "[CBK282917]", "% of control remaining": 115.261}
{"smiles": "COc1ccc(-c2cnc(N)c(NCCCN3CCOCC3)n2)c(OC)c1OC", "note": "[CBK063676]", "% of control remaining": 118.605}
{"smiles": "O=C(CN1CCN(Cc2ccccc2)CC1)Nc1ccccc1Oc1ccccc1", "note": "[CBK074782]", "% of control remaining": 110.8}
{"smiles": "CC(=O)NC(C)(COc1nonc1C)COc1nonc1C", "note": "[CBK265955]", "% of control remaining": 101.139}
{"smiles": "O=S(=O)(NCCN1CCOCC1)c1cc(Cl)ccc1Cl", "note": "[CBK261757]", "% of control remaining": 101.201}
{"smiles": "O=S(=O)(NCCSCc1c(Cl)cccc1Cl)c1ccc(Cl)cc1", "note": "[CBK265304]", "% of control remaining": 124.314}
{"smiles": "CC(C)(C)c1ccc(OCc2nnc(S)n2N)cc1", "note": "[CBK268421]", "% of control remaining": 103.467}
{"smiles": "C=C(C)Cn1c(SCC(C)C)nnc1-c1ccccc1F", "note": "[CBK200077]", "% of control remaining": 93.475}
{"smiles": "COc1ccc(C=CC(=O)ONC(=O)c2ccc(OC(F)F)cc2)cc1OC", "note": "[CBK296098]", "% of control remaining": 115.486}
{"smiles": "CC(NS(=O)(=O)c1ccc(CCC(=O)O)cc1)c1ccccc1", "note": "(stereo not drawn) [CBK267058]", "% of control remaining": 183.255}
{"smiles": "Cc1cccnc1CN(C)C(=O)c1cccc(NC(=O)C2CCCC2)c1", "note": "[CBK306913]", "% of control remaining": 128.936}
{"smiles": "CSc1ccccc1Nc1ncnc2n[nH]cc12", "note": "[CBK288099]", "% of control remaining": 137.003}
{"smiles": "Oc1cc(C(F)(F)F)nc2[nH]nc(-c3cccs3)c12", "note": "[CBK008498]", "% of control remaining": 124.448}
{"smiles": "CC(C)C(=O)Nc1nc2c(nc(OCc3ccccc3)n2C2CC(O)C(CO)O2)c(=O)[nH]1", "note": "(stereo not drawn) [CBK201264]", "% of control remaining": 131.329}
{"smiles": "Cc1nc(NC(=O)Cc2c(C)nn(CC(C)C)c2C)sc1-c1n[nH]c(=S)n1C", "note": "[CBK296691]", "% of control remaining": 120.58}
{"smiles": "O=C(Cc1ccc(Cl)c(Cl)c1)N1CCC2(CCN(C(=O)c3cc(F)c(F)cc3F)C2)C1", "note": "(stereo not drawn) [CBK131386]", "% of control remaining": 121.396}
{"smiles": "O=C(O)c1ccc(N2CC(C(=O)Nc3ccc(F)cc3)CC2=O)cc1", "note": "(stereo not drawn) [CBK286794]", "% of control remaining": 116.824}
{"smiles": "O=C(NCCCNc1ccc([N+](=O)[O-])cc1)c1cccs1", "note": "[CBK066825]", "% of control remaining": 104.568}
{"smiles": "COc1ccc(S(=O)(=O)Nc2nccnc2-c2cccs2)cc1OC", "note": "[CBK050774]", "% of control remaining": 92.6189}
{"smiles": "Nc1cccc(-c2nccnc2N2CCCC2CO)c1", "note": "(stereo not drawn) [CBK036786]", "% of control remaining": 106.135}
